Test results from US20190316206A1.
No constants are given. Whether binding was seen depends on the method and setting. Binding seen in cells or lysates may run through a third protein. Some entries that bind do so weakly or less than the wild type.

Amino acid sequences for entries named in this document (tags omitted).
UniProt P23458: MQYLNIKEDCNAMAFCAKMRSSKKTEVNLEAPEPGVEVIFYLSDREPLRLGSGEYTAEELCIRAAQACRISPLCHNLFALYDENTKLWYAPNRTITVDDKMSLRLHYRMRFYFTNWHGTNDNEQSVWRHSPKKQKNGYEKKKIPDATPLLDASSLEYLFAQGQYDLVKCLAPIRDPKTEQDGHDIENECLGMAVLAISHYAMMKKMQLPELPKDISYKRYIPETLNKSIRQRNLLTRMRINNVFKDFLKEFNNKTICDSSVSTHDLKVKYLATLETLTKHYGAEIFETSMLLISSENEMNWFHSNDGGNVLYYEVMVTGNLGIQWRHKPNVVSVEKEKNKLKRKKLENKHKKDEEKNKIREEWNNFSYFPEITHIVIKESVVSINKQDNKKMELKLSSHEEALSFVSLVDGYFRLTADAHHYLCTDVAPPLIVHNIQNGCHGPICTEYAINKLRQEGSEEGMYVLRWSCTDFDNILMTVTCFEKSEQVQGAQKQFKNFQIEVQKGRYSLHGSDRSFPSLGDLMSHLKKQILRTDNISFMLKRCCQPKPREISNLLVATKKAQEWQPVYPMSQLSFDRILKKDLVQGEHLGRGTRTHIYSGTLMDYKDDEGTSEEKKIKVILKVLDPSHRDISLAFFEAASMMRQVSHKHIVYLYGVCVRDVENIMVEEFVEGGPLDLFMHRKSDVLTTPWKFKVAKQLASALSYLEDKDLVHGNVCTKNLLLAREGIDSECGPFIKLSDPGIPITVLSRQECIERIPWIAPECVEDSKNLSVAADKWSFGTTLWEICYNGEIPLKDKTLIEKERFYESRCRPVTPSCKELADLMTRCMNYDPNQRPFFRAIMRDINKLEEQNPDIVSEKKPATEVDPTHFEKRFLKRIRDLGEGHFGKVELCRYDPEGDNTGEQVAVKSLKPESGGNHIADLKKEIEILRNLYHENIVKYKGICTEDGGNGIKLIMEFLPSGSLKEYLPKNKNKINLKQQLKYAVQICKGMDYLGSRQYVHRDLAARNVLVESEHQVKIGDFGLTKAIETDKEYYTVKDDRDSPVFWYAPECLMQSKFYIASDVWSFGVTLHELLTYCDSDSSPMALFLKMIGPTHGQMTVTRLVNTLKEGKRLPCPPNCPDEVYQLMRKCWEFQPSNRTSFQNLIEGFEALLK
UniProt P35414: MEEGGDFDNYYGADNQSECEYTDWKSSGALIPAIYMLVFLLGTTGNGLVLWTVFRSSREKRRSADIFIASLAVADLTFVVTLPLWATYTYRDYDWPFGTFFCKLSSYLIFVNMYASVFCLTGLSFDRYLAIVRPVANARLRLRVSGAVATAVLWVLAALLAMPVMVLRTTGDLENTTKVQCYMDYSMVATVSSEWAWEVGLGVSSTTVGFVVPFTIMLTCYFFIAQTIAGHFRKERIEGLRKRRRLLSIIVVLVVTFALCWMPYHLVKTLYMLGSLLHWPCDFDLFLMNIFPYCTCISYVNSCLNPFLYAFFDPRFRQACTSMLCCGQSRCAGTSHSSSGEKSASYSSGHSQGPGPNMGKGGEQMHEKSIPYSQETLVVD

Columns and labels:
JAK1 [1] = biological target: JAK1 (UniProt P23458); test: co-immunoprecipitation: JAK1 pull-down from A375 cell lysates, immunoblot for APLNR
JAK1 [2] = biological target: JAK1 (UniProt P23458); test: co-immunoprecipitation: JAK1 pull-down from A375 cell lysates, immunoblot for APLNR; IgG pull-down as negative control

Apelin Receptor (APLNR) (from UniProt P35414 1-380)
binding (JAK1 [1]): binds
binding (JAK1 [2]): binds
